Assay results published in US20080207488A1, “Method for Detecting Peptides Comprising a Cross-B Structure” (priority 2005, published 2008).
These are yes or no findings as the source states them, for the method shown. Some results given as binding are weak or reduced against the parent protein; the word gives no strength.

What was measured:
[1] = molecular target: alkyl-lysozyme (UniProt P00698); experiment: ELISA, detection anti-FLAG HRP
[2] = molecular target: lysozyme, native (UniProt P00698); experiment: ELISA, detection anti-FLAG HRP
[3] = molecular target: alkyl-lysozyme (UniProt P00698); experiment: ELISA, coated protein, Fn F4,5 dilution series
[4] = molecular target: lysozyme, native (UniProt P00698); experiment: ELISA, coated protein, Fn F4,5 dilution series

Measured: binding

human fibronectin finger 4,5 (Fn F4,5) fragment with carboxy-terminal FLAG-tag-His-tag (from UniProt P02751 184-273)
binds: all assays above
